{"sequences": {"note": "Protein sequences, listed by entry. Tags and fused reporters are not part of them. Lines headed by an entry give the natural chain unless they say otherwise; changes in a name come on top.", "UniProt P55211": "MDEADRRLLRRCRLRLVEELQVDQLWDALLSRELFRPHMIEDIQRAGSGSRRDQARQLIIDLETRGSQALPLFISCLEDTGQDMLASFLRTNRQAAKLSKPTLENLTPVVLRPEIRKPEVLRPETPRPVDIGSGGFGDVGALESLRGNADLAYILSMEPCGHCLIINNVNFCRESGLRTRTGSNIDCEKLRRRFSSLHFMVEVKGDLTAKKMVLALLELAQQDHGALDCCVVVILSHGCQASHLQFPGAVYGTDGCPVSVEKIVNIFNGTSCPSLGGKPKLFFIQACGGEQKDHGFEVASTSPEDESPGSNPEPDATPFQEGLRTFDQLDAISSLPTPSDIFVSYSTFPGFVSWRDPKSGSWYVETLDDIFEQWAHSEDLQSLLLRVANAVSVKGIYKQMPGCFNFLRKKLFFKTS"}, "source": "paper PMC6043850", "biological_target": "T1, Myc-TRAF2 (UniProt Q12933)", "T1 sequence": "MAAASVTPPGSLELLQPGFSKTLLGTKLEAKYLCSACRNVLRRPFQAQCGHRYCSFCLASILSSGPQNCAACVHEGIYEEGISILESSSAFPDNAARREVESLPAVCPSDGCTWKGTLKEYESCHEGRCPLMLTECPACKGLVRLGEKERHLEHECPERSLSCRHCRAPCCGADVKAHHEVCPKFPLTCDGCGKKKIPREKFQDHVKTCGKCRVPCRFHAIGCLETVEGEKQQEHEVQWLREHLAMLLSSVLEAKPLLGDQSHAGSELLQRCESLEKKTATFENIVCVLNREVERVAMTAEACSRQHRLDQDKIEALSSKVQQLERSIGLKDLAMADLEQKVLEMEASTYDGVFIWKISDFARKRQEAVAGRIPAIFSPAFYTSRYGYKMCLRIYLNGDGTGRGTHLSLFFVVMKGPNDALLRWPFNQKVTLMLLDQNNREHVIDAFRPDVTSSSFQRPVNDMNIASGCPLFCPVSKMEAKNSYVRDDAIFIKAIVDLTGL", "assay": "co-IP; Myc-TRAF2 expressed in HeLa for 48 h; Myc-Trap IP, immunoblot for endogenous caspases", "note": "Results are given in words; binding and its absence hold for the method and conditions named. Binding seen in cells or lysates may run through a third protein. Binding can be weak; no strength is given. Tags and fused reporters may be left off the sequences shown."}
{"substance": "caspase-9 (endogenous) (from UniProt P55211)", "values": [{"measurement": "binding", "value": "binds"}]}
